# Source: the supplement of paper PMC12067093, “Discovery and optimisation of a covalent ligand for TRIM25 and its application to targeted protein ubiquitination” (Chemical Science, 2025)
# Amino acid sequences for entries named in this document (tags omitted). A change or cut given only in a name is not applied to a line headed by its entry.
# UniProt Q9Y3S2: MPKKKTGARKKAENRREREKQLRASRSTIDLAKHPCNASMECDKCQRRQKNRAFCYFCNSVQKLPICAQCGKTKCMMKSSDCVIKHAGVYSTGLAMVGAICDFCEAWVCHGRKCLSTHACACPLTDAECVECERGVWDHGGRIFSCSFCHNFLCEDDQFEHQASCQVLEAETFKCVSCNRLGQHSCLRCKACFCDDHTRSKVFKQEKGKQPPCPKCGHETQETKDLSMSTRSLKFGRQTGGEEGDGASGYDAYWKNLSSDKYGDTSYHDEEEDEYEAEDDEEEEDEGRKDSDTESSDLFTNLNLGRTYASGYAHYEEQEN
# UniProt Q14966: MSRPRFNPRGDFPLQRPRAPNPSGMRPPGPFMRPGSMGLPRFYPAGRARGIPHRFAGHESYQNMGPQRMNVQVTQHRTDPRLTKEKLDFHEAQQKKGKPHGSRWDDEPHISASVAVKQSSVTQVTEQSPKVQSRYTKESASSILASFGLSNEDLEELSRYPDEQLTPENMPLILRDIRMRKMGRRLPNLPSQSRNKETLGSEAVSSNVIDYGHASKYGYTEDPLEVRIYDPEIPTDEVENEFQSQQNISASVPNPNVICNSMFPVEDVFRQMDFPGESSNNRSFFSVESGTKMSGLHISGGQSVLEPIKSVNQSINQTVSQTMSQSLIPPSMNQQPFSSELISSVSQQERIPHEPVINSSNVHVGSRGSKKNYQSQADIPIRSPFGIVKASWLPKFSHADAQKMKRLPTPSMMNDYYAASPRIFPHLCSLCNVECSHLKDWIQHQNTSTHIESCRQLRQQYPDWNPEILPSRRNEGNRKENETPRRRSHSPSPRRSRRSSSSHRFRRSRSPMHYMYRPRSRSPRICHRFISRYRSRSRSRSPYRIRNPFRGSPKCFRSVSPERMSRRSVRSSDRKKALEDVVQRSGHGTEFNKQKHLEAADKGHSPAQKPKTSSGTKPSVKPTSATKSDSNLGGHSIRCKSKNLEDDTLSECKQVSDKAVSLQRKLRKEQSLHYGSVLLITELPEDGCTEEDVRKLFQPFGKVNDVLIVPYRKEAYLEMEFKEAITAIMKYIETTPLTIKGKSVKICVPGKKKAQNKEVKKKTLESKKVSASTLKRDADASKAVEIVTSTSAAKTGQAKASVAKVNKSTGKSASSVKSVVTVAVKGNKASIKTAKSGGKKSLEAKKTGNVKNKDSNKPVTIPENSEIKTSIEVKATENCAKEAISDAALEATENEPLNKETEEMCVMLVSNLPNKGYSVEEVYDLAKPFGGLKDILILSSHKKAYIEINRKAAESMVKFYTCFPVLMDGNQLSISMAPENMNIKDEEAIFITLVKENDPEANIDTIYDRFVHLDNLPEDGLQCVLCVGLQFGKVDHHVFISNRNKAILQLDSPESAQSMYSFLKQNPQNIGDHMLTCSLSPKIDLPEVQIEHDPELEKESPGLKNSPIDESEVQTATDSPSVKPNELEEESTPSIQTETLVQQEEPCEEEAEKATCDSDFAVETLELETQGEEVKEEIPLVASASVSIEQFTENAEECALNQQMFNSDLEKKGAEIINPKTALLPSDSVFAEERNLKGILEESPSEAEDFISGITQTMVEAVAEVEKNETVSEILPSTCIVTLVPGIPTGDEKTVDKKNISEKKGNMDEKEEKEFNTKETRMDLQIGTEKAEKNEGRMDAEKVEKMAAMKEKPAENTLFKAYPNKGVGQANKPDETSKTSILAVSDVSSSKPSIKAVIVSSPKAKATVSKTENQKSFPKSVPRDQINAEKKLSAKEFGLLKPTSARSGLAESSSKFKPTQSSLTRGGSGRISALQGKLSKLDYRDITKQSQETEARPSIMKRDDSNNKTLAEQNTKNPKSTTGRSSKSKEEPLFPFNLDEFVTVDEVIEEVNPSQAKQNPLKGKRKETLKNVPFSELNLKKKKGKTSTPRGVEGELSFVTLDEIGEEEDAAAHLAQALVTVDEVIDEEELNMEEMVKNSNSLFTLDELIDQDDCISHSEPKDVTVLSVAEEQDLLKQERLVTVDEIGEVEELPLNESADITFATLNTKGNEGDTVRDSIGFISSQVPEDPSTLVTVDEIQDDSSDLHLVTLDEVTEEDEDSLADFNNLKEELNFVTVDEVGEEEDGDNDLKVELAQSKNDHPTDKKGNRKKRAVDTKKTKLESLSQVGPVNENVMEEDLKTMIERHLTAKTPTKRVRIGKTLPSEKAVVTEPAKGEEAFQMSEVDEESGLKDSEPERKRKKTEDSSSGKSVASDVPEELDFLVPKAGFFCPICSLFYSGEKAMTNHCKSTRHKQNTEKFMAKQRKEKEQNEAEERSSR
# UniProt Q9H2Y7: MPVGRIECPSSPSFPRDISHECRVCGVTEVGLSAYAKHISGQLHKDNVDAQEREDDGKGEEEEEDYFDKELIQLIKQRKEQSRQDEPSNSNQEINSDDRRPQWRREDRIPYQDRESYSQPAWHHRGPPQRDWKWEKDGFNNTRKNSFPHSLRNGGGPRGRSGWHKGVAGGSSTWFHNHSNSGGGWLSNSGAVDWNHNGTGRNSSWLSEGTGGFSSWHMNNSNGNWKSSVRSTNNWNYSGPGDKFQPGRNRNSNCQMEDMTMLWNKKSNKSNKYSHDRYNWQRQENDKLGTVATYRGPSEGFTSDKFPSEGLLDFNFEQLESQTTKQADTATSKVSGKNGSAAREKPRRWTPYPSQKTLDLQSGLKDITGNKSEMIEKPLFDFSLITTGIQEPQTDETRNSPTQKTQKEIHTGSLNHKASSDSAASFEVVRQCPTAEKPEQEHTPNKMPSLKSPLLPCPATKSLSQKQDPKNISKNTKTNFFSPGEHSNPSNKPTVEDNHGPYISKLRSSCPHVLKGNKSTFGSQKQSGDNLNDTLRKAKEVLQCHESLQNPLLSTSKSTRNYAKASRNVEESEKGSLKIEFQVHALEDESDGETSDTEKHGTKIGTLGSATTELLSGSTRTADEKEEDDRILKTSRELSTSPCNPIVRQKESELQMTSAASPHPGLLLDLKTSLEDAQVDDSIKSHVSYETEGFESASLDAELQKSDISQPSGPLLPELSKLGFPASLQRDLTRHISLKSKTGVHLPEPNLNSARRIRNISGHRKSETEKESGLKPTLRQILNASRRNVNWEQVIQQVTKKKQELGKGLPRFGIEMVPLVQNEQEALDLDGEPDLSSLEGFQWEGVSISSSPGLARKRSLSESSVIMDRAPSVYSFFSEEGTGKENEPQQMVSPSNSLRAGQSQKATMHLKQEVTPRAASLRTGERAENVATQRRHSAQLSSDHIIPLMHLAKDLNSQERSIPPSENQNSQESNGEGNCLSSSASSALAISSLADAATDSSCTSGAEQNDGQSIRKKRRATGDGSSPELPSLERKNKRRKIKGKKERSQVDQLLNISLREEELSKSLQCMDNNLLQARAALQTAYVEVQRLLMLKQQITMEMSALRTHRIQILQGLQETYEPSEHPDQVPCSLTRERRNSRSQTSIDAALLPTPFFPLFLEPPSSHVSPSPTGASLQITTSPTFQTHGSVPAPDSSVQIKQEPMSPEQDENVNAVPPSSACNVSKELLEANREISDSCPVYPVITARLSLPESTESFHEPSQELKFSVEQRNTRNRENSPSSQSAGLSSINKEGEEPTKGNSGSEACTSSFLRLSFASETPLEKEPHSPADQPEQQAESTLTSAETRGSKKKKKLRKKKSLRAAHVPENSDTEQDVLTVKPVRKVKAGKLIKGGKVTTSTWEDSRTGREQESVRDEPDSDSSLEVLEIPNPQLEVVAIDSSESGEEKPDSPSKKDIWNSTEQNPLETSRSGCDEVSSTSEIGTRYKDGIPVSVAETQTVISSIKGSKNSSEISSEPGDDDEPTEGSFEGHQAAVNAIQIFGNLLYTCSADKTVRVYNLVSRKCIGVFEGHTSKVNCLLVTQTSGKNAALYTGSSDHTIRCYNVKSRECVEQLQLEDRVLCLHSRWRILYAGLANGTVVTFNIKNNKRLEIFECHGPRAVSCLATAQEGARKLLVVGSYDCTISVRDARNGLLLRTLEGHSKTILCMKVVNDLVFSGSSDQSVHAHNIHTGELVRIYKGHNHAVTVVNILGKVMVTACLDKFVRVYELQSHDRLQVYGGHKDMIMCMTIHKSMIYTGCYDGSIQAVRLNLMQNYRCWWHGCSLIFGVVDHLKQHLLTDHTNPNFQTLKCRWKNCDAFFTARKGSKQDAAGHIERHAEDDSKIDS
# UniProt Q9Y4E5: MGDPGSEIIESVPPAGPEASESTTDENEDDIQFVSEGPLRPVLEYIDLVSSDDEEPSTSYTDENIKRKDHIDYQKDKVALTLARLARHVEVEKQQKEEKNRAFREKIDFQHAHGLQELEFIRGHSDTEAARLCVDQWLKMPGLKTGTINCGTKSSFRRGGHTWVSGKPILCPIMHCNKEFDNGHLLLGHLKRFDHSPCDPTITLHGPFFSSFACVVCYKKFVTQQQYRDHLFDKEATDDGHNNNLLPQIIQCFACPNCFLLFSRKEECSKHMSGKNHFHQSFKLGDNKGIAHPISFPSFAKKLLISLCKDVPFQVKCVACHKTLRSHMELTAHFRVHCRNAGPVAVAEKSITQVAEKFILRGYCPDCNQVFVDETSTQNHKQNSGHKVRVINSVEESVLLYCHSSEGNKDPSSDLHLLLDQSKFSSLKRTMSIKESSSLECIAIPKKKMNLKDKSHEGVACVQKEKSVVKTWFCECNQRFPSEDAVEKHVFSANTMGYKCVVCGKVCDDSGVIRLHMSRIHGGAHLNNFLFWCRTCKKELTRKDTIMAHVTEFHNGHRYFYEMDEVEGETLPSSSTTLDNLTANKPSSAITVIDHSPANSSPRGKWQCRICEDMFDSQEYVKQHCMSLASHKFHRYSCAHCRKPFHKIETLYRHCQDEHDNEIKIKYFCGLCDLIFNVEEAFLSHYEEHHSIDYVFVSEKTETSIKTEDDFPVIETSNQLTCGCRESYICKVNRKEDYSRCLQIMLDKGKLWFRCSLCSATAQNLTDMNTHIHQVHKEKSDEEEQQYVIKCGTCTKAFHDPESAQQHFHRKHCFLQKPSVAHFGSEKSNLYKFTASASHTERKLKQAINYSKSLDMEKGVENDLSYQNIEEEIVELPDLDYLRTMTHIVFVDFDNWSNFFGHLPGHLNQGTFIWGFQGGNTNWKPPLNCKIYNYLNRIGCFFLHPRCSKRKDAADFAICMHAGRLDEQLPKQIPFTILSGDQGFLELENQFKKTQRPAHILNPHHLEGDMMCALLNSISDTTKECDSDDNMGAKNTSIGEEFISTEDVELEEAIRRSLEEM
# UniProt Q8N8Y5: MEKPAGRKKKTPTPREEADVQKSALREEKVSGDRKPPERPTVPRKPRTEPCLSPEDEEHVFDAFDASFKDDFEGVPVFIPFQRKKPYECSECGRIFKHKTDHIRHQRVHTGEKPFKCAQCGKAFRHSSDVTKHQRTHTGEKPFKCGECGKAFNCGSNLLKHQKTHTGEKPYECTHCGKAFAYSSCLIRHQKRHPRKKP
# UniProt Q96KR1: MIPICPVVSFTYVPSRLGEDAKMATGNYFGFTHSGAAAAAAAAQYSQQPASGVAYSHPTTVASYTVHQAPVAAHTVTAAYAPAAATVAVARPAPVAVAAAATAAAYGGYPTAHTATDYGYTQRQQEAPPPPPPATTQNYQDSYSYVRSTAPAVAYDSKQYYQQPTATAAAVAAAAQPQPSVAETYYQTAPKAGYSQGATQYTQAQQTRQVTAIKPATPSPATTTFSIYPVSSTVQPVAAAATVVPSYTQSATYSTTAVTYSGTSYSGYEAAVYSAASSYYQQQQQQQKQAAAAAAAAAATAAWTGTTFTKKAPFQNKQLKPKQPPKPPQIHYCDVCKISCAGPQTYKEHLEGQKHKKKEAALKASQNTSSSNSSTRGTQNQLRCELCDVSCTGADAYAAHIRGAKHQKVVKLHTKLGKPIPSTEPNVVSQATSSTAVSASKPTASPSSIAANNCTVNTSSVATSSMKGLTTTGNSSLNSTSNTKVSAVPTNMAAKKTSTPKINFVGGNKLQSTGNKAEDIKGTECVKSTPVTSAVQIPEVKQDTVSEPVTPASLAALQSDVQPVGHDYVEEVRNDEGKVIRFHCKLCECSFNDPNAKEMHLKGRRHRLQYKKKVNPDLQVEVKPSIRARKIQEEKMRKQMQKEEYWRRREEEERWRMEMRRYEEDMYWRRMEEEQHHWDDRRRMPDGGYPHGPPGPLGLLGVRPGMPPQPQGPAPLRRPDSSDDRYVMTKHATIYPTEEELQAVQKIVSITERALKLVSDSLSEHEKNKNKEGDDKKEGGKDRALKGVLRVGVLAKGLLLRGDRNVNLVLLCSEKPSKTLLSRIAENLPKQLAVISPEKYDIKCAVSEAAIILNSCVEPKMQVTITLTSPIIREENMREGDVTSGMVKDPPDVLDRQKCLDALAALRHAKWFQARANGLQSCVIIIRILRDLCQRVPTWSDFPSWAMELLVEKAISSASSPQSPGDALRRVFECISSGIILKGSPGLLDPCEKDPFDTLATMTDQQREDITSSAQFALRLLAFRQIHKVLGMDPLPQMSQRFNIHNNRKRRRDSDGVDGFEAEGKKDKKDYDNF
# The other results are listed elsewhere or left out.
# Compound: Cc1cc(ccc1-c1ccccc1)C(=O)N1CCCN(CC1)C(=O)CCl [compound 10]
# Test: probe-labelled cysteine peptide fold change vs DMSO (competition) (log2 fold change); higher = less target engagement (more negative = stronger competition)
# Settings: THP-1, incubation time: 4 h
# 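Also: competitive profiling in live THP-1 cells: cysteine peptides tagged with an iodoacetamide desthiobiotin (IA-DTB) probe, intensity after compound treatment relative to DMSO-treated cells.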
target,measurement,setting,value
ZNF281_Q9Y2X9_291+294_HVLIHTGERPFQCSQCSMGFIQK (UniProt Q9Y2X9),probe-labelled cysteine peptide fold change,10 µM,-0.0697
same,probe-labelled cysteine peptide fold change,50 µM,-0.111
ZNF496_Q96IT1_134_HCEDPVVIDDGDSPLDQEQEQLPVEPHSDLAK (UniProt Q96IT1),probe-labelled cysteine peptide fold change,10 µM,-0.264
same,probe-labelled cysteine peptide fold change,50 µM,-0.188
ZMYND8_Q9ULU4_196_MKQPGTDAFQKPVPLEQHPDYAEYIFHPMDLCTLEK (UniProt Q9ULU4),probe-labelled cysteine peptide fold change,10 µM,-0.325
same,probe-labelled cysteine peptide fold change,50 µM,-0.838
ZNF330_Q9Y3S2_194_ACFCDDHTR (UniProt Q9Y3S2),probe-labelled cysteine peptide fold change,10 µM,0.0104
same,probe-labelled cysteine peptide fold change,50 µM,-0.13
ZNF124_Q15973_245_AFSCLSSLQGHIK (UniProt Q15973),probe-labelled cysteine peptide fold change,10 µM,0.0531
same,probe-labelled cysteine peptide fold change,50 µM,-0.298
ZNF326_Q5BKZ1_360_VVMEFLHECMVNK (UniProt Q5BKZ1),probe-labelled cysteine peptide fold change,10 µM,0.097
same,probe-labelled cysteine peptide fold change,50 µM,0.106
ZNF512_Q96ME7_540_NNEELVVSASCK (UniProt Q96ME7),probe-labelled cysteine peptide fold change,10 µM,0.0455
same,probe-labelled cysteine peptide fold change,50 µM,0.0373
ZNF638_Q14966_1077_QNPQNIGDHMLTCSLSPK (UniProt Q14966),probe-labelled cysteine peptide fold change,10 µM,0.0499
same,probe-labelled cysteine peptide fold change,50 µM,-0.319
ZGPAT_Q8N5A5_180_SLKPCPFFLEGK (UniProt Q8N5A5),probe-labelled cysteine peptide fold change,10 µM,-0.073
same,probe-labelled cysteine peptide fold change,50 µM,-0.614
ZNF687_Q8N1G0_718_CSFSAHQR (UniProt Q8N1G0),probe-labelled cysteine peptide fold change,10 µM,0.117
same,probe-labelled cysteine peptide fold change,50 µM,-0.117
ZNF106_Q9H2Y7_432_QCPTAEKPEQEHTPNK (UniProt Q9H2Y7),probe-labelled cysteine peptide fold change,10 µM,-0.456
same,probe-labelled cysteine peptide fold change,50 µM,-0.279
ZNF330_Q9Y3S2_192+194_ACFCDDHTR (UniProt Q9Y3S2),probe-labelled cysteine peptide fold change,10 µM,0.23
same,probe-labelled cysteine peptide fold change,50 µM,-0.145
ZMYM2_Q9UBW7_612_LYNFCNSSCVAK (UniProt Q9UBW7),probe-labelled cysteine peptide fold change,10 µM,-0.192
same,probe-labelled cysteine peptide fold change,50 µM,-1.33
ZMYND8_Q9ULU4_91_NDFYCWVCHR (UniProt Q9ULU4),probe-labelled cysteine peptide fold change,10 µM,0.0594
same,probe-labelled cysteine peptide fold change,50 µM,-0.0329
ZFP64_Q9NPA5_196_CHTGVKPYK (UniProt Q9NTW7),probe-labelled cysteine peptide fold change,10 µM,0.138
same,probe-labelled cysteine peptide fold change,50 µM,-0.0402
ZNF106_Q9H2Y7_1653_RLEIFECHGPR (UniProt Q9H2Y7),probe-labelled cysteine peptide fold change,10 µM,-0.17
same,probe-labelled cysteine peptide fold change,50 µM,0.17
ZNF280C_Q8ND82_714_THTCQVIIENVSK (UniProt Q8ND82),probe-labelled cysteine peptide fold change,10 µM,-0.0679
same,probe-labelled cysteine peptide fold change,50 µM,0.101
ZNF460_Q14592_450_PYVCIQCGK (UniProt Q14592),probe-labelled cysteine peptide fold change,10 µM,0.0308
same,probe-labelled cysteine peptide fold change,50 µM,-0.473
ZNF451_Q9Y4E5_150_TGTINCGTK (UniProt Q9Y4E5),probe-labelled cysteine peptide fold change,10 µM,-0.175
same,probe-labelled cysteine peptide fold change,50 µM,-1.18
ZNF430_Q9H8G1_138_CGHEDLQLR (UniProt Q9H8G1),probe-labelled cysteine peptide fold change,10 µM,-0.195
same,probe-labelled cysteine peptide fold change,50 µM,-0.412
ZFP41_Q8N8Y5_154_AFNCGSNLLK (UniProt Q8N8Y5),probe-labelled cysteine peptide fold change,10 µM,0.0919
same,probe-labelled cysteine peptide fold change,50 µM,-0.618
ZNF638_Q14966_1947_AMTNHCK (UniProt Q14966),probe-labelled cysteine peptide fold change,10 µM,-0.149
same,probe-labelled cysteine peptide fold change,50 µM,-0.155
ZNF451_Q9Y4E5_461_SHEGVACVQK (UniProt Q9Y4E5),probe-labelled cysteine peptide fold change,10 µM,-0.282
same,probe-labelled cysteine peptide fold change,50 µM,-0.471
ZNF101_Q8IZC7_321_CPTSLQAHER (UniProt Q8IZC7),probe-labelled cysteine peptide fold change,10 µM,0.0329
same,probe-labelled cysteine peptide fold change,50 µM,-0.232
ZNF362_Q5T0B9_232_VCPLTFFTK (UniProt Q5T0B9),probe-labelled cysteine peptide fold change,10 µM,-0.232
same,probe-labelled cysteine peptide fold change,50 µM,-0.0928
ZFP36L2_P47974_174_CQFAHGFHELR (UniProt P47974),probe-labelled cysteine peptide fold change,10 µM,-0.156
same,probe-labelled cysteine peptide fold change,50 µM,0.0378
ZNF451_Q9Y4E5_959_DAADFAICMHAGR (UniProt Q9Y4E5),probe-labelled cysteine peptide fold change,10 µM,-0.0248
same,probe-labelled cysteine peptide fold change,50 µM,0.21
ZNF106_Q9H2Y7_22_DISHECR (UniProt Q9H2Y7),probe-labelled cysteine peptide fold change,10 µM,0.118
same,probe-labelled cysteine peptide fold change,50 µM,0.389
ZFR_Q96KR1_844+856_CAVSEAAIILNSCVEPK (UniProt Q96KR1),probe-labelled cysteine peptide fold change,10 µM,0.0711
same,probe-labelled cysteine peptide fold change,50 µM,0.0996
ZNF592_Q92610_353_SICSDSSSK (UniProt Q92610),probe-labelled cysteine peptide fold change,10 µM,-0.0195
same,probe-labelled cysteine peptide fold change,50 µM,-0.139
ZNF428_Q96B54_111_SPLGEAPPGTPPCR (UniProt Q96B54),probe-labelled cysteine peptide fold change,10 µM,-0.0593
same,probe-labelled cysteine peptide fold change,50 µM,-0.657
ZGRF1_Q86YA3_2008_EIIILSCVR (UniProt Q86YA3),probe-labelled cysteine peptide fold change,10 µM,0.0751
same,probe-labelled cysteine peptide fold change,50 µM,-0.35
ZNF692_Q9BU19_235_LLPSPVTCTPK (UniProt Q9BU19),probe-labelled cysteine peptide fold change,10 µM,-0.333
same,probe-labelled cysteine peptide fold change,50 µM,-0.498
ZNF579_Q8NAF0_443_HAQVHAGGPAPHPCPR (UniProt Q8NAF0),probe-labelled cysteine peptide fold change,10 µM,0.341
same,probe-labelled cysteine peptide fold change,50 µM,0.533
ZFR_Q96KR1_974_RVFECISSGIILK (UniProt Q96KR1),probe-labelled cysteine peptide fold change,10 µM,0.0134
same,probe-labelled cysteine peptide fold change,50 µM,-0.0405
ZFYVE19_Q96K21_104_AFCSGCLSFSAAVPR (UniProt Q96K21),probe-labelled cysteine peptide fold change,10 µM,0.0225
same,probe-labelled cysteine peptide fold change,50 µM,-0.179
ZMYM3_Q14202_968_ASSDLCDLVSNQSAEGLLEDCDLFGPAR (UniProt Q14202),probe-labelled cysteine peptide fold change,10 µM,0.133
same,probe-labelled cysteine peptide fold change,50 µM,-0.386
ZFYVE1_Q9HBF4_217_TSPTQESCTVGVWAAYDPVHK (UniProt Q9HBF4),probe-labelled cysteine peptide fold change,10 µM,0.317
same,probe-labelled cysteine peptide fold change,50 µM,0.0727
ZNF189_O75820_610_TQETHECDACGEAFNCR (UniProt O75820),probe-labelled cysteine peptide fold change,10 µM,0.105
same,probe-labelled cysteine peptide fold change,50 µM,-0.498

# A second format for part of the listing above:
target	measurement	setting	value
ZMYND8_Q9ULU4_196_MKQPGTDAFQKPVPLEQHPDYAEYIFHPMDLCTLEK (UniProt Q9ULU4)	probe-labelled cysteine peptide fold change	10 µM	-0.325
same	probe-labelled cysteine peptide fold change	50 µM	-0.838
ZNF330_Q9Y3S2_194_ACFCDDHTR (UniProt Q9Y3S2)	probe-labelled cysteine peptide fold change	10 µM	0.0104
